# Some of these results come from one statement about several compounds together.
# System: REMICADE®
# Assay: Viscosity of aqueous solutions of […]® with viscosity-lowering agents
# Type: physicochemical
# Details: isotonic amounts of excipient vs PB; Table 40
# Protocol: (unless otherwise indicated).
# An extrapolated zero-shear viscosity was determined from a plot of absolute viscosity versus shear rate.
# Following reconstitution, the viscosity of each solution was measured using the microfluidic viscometer as described in previous examples. The solutions were then back-loaded into 1 mL BD insulin syringes with 27, 29, or 31 gauge fixed needles. The force required to extrude the concentrated […]® solutions was then measured using an Instron at a rate of displacement equivalent to a fluid flow rate of 3 mL/min. The expelled solution was collected from the syringe and analyzed by size-exclusion chromatography.
substance,measurement,value
camphorsulfonic acid arginine [CSAA],Viscosity reduction,up to 10 fold
